Here are results for one substance from publication PMC10074098.

The experiment addresses T1, C‐reactive protein (rat (endogenous in DRG tissue)) (UniProt P48199).
T1 sequence: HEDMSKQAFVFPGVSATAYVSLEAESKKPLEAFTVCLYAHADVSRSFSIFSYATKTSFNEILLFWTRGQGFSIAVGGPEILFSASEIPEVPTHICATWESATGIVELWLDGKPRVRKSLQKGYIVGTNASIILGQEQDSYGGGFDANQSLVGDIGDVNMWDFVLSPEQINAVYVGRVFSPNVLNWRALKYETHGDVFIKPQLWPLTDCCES
As to the kind of experiment: co-IP; rat L4‐L5 DRG tissue lysates (RIPA lysis buffer with NP‐40, protease and phosphatase inhibitors) from sham and CCI rats; immunoprecipitated over 2 h at 4 °C with protein A/G coupled with anti‐FcγRI, anti‐Syk or anti‐CRP antibody (Pierce Crosslink Magnetic IP/Co‐IP Kit); immunoblot.

No constants are given. Whether binding was seen depends on the method and setting. Binding seen in cells or lysates may run through a third protein. A result given as binding can be weak or reduced; the word gives no strength.

Consider “Fc‐gamma‐receptor type I (rat (endogenous in DRG tissue))”, for which the binding result was “binds”.
